From US20260356957A1, “METHODS FOR TREATMENT OF NON-SMALL CELL LUNG CANCER (NSCLC)” (Janssen Biotech, Inc., priority 2023, published 2026) come the findings set out here.

A short description of the data set: MARIPOSA Phase 3, treatment duration and disposition. In kind it is in vivo, human. Conditions: median follow-up 22.0 months.

As for `C=CC(=O)Nc1cc(Nc2nccc(-c3cn(C)c4ccccc34)n2)c(OC)cc1N(C)CCN(C)C` [Osimertinib], the Median treatment duration came to 18.0 months.
